# Measurements reported in PMC11986068.
# Protein sequences, listed by entry. Tags and fused reporters are not part of them. Residues count along the entry.
# UniProt Q61220, residues 25-819: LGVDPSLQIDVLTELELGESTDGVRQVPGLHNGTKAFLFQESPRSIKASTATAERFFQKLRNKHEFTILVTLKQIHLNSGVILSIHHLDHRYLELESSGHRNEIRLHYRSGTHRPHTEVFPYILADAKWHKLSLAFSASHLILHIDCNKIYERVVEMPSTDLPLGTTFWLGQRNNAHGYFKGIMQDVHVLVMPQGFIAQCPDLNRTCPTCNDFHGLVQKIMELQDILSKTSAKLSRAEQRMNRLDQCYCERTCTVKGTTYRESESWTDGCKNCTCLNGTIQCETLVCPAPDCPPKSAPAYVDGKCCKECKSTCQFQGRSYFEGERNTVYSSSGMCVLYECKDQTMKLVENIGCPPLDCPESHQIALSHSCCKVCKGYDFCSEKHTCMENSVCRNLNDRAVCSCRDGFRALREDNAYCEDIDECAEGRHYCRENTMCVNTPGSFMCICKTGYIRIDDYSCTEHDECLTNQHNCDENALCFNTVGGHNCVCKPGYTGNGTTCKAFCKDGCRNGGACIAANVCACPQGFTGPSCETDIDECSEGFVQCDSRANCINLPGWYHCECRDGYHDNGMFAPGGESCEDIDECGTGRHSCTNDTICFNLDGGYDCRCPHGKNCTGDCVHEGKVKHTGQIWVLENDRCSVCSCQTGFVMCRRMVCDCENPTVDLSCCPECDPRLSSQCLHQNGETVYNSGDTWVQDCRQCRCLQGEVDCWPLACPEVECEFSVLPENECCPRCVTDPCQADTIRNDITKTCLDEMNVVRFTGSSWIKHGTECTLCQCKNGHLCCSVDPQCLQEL
# UniProt P11276, residues 33-2477: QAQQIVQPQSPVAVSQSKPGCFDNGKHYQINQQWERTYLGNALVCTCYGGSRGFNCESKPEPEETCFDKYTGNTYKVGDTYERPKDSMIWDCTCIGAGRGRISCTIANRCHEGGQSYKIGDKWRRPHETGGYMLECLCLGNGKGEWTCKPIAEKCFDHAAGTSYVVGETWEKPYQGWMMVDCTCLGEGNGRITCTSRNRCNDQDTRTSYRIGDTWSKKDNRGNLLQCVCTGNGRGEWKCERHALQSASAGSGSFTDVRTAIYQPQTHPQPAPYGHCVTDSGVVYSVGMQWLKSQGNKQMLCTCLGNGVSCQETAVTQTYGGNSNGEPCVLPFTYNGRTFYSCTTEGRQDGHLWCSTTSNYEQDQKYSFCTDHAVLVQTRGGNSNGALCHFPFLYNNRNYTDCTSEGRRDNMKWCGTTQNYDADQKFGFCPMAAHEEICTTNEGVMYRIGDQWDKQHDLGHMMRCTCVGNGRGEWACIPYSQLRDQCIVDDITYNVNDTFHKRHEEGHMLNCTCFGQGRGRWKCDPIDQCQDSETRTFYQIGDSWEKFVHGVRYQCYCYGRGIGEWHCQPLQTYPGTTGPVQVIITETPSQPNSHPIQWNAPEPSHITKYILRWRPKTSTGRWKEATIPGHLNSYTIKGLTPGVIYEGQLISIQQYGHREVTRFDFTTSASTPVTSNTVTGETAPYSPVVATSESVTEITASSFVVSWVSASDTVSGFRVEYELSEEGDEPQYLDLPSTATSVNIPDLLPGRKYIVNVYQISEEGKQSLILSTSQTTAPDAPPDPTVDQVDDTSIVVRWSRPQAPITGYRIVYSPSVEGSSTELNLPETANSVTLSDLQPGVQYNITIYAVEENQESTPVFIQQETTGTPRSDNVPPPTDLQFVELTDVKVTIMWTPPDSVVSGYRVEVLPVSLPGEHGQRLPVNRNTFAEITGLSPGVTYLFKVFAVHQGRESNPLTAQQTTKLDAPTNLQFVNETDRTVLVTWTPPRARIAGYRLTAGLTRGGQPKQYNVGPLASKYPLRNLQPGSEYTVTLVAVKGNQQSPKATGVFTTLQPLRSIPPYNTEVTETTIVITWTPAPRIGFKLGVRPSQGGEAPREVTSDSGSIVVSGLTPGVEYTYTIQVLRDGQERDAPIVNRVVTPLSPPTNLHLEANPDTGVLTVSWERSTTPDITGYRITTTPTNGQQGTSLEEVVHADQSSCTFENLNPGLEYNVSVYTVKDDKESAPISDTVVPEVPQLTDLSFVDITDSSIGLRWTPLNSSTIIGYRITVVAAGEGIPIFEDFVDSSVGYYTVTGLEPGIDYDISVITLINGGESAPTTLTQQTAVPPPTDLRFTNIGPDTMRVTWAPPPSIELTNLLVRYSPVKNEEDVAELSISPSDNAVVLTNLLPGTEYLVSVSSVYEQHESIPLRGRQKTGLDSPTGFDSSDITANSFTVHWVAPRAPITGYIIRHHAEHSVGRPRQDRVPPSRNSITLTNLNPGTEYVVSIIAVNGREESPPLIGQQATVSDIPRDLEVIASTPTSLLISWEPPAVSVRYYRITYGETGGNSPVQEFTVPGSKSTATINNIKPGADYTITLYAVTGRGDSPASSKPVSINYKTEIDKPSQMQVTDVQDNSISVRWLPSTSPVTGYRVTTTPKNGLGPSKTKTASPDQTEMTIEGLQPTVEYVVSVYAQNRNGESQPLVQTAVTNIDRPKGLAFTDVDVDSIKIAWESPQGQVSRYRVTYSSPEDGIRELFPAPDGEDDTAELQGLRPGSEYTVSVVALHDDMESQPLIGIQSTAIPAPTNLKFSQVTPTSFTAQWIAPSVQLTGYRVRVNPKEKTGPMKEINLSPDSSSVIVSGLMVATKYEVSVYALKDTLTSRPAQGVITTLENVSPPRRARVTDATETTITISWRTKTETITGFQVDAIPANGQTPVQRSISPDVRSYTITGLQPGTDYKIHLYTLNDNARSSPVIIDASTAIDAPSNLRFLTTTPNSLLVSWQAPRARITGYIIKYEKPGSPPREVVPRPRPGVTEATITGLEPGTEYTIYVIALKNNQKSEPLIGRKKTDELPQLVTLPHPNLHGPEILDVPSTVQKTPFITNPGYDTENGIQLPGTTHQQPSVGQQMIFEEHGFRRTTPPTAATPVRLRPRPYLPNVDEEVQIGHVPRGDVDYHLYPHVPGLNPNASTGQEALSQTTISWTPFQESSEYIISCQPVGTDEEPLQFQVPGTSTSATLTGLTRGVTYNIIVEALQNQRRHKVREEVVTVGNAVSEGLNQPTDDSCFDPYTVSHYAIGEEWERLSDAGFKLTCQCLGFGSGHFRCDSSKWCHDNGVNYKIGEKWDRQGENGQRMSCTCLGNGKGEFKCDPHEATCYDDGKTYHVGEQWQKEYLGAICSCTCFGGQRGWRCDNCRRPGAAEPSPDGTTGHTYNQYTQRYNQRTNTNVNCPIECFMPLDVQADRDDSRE
# No constants are given. Whether binding was seen depends on the method and setting. In cells and extracts the contact can be indirect. These calls come from enrichment with a bait or labelling near it, and not all partners need be listed.
# Target: His-labeled recombinant NELL2 (UniProt Q61220)
# Test: affinity purification with mass spectrometry; BMSC membrane proteins incubated with His-labeled recombinant NELL2 and anti-His antibody, adsorbed to protein A/G magnetic beads at room temperature for 30 min; eluate on SDS-PAGE, bands digested, LC-MS/MS; only the target purified
substance,measurement,value
"Fibronectin 1 (Fn1), endogenous in BMSC membrane proteins (from UniProt P11276 33-2477)",binding,binds
